From PMC7819943, “Rice protein-binding microarrays: a tool to detect cis-acting elements near promoter regions in rice” come the findings set out here.

The other results are listed elsewhere or left out.

The test addresses T1, OsSMF1 (Oryza sativa, UniProt Q6ZLB0 1-436).
T1 sequence: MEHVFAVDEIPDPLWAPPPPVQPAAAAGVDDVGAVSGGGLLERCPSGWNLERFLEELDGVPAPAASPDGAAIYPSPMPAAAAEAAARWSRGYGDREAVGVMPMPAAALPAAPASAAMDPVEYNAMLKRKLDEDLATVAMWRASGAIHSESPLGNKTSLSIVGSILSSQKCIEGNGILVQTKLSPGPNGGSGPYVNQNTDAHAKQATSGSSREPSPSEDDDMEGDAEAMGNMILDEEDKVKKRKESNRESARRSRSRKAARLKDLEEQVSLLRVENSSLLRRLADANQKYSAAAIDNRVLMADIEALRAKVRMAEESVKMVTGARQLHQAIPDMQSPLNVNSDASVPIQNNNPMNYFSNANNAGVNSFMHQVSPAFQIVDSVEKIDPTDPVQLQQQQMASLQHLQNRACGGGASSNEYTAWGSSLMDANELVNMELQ
Put plainly: protein-binding microarray (RPBM); PBS, 2% BSA, 51.3 ng/ul salmon testes DNA, 50 uM zinc acetate, 200 nM TF, 25 C, 1 h; high values mean tight binding. As to conditions: protein: recombinant; tags: N-terminal polyhistidine and DsRed monomer fusion (pET32a); chain copies: 2; label: CyDye5-dUTP incorporated in the synthesized complementary strand; 3' TTTTT single-stranded linker to array surface; dsDNA, one strand shown. The method in brief:
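The binding signal for each feature is its fluorescence intensity in arbitrary units. An Axon 4000B scanner was used to read a custom Agilent array that had been made double-stranded with Cy5-dUTP primer extension, blocked with 2% BSA, incubated at 25 °C for 1 h with 200 nM protein in PBS, 2% BSA, salmon testes DNA and 50 µM zinc acetate, and washed. The protein was an N-terminal polyhistidine–DsRed transcription factor fusion from E. coli BL21-CodonPlus, purified on Ni–NTA.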
Take “TACTCCTACTTGTTTCCAGTACTTGGTATCATGTCTAGCACGGAGTCACCTAGTGCAG”: the binding signal was 4330 fluorescence intensity (a.u.).

With “AATTGGTTTTCTTAACATGCTATCATCATAACGTAATGCACGGAGTCACCTAGTGCAG”, the binding signal was 3420 fluorescence intensity (a.u.).

Consider “TAATAAGATGAAAAGCTACTGAATTTGTAATCAGGAGATACGGAGTCACCTAGTGCAG”, for which the binding signal is 3480 fluorescence intensity (a.u.).

As to “ATCTGGCATAGAAACGTTGTCACTCTCATCGGCTACTGCCCGGAGTCACCTAGTGCAG”, the binding signal was 19300 fluorescence intensity (a.u.).

As for “CCGCTCCACTCTCCACCCGGGATGGCGGACGCCACGCACGCGGAGTCACCTAGTGCAG”, the binding signal was 5350 fluorescence intensity (a.u.).

As to “ATCCGGTCTTGTGGTCAACAGACGAATTTCGAACTCGACGCGGAGTCACCTAGTGCAG”, the binding signal is 3160 fluorescence intensity (a.u.).

“TATTGGATATTTTGCATTGTTTTGGTTGTAGACGTGGTTTCGGAGTCACCTAGTGCAG”: the binding signal was 3860 fluorescence intensity (a.u.).

As to “GGAGAAAGAAAATGACGGAGTGACGTATTCGATGACAGTGCGGAGTCACCTAGTGCAG”, the binding signal was 3240 fluorescence intensity (a.u.).

Turning to “GCCCAGCCAAATTTCCCTTGACACGCACCTAAATTAGGCGCGGAGTCACCTAGTGCAG”, the binding signal was 3800 fluorescence intensity (a.u.).

Take “TTGGCGTTGATGTGGCATGCCACACATACATGACATGACACGGAGTCACCTAGTGCAG”: the binding signal was 6560 fluorescence intensity (a.u.).

“GTCTTGCCTTCACCGCTAAGCATCAGCCGCTGACGTCAGCCGGAGTCACCTAGTGCAG”: the binding signal is 26600 fluorescence intensity (a.u.).

For the sequence “GAGCACCGGCTAAATCCAGCAGCGCGGGCAGCGGGCGAGACGGAGTCACCTAGTGCAG”, the binding signal is 23100 fluorescence intensity (a.u.).

Turning to “ATCATGAATATATAATAAGCATACAATTCATTATTAGCATCGGAGTCACCTAGTGCAG”, the binding signal is 3600 fluorescence intensity (a.u.).

Consider “TTCCCTCTAACTCTGAGTCACCGATATATGGGCCCATTAACGGAGTCACCTAGTGCAG”, for which the binding signal was 6770 fluorescence intensity (a.u.).

For the sequence “CGGGCGCGCCACGGCGGCGACGGGTCGGGTCTCGCTGTCGCGGAGTCACCTAGTGCAG”, the binding signal is 4000 fluorescence intensity (a.u.).

Turning to “TTGGCCCCAATATTGAATCCTGTAGGTGACACATTAACTGCGGAGTCACCTAGTGCAG”, the binding signal is 3760 fluorescence intensity (a.u.).

In the case of “ACGATGACTGGGAGAGGTGATGAGATCTGGTGAGGTGTCCCGGAGTCACCTAGTGCAG”, the binding signal was 5530 fluorescence intensity (a.u.).

With “CTTAATTACTCCTATATATATAAGGCAACCTATTATTGCCCGGAGTCACCTAGTGCAG”, the binding signal was 13500 fluorescence intensity (a.u.).

On to “AAATAGGTGATGATGCAAACTGGTTTACCATGATGCAGTACGGAGTCACCTAGTGCAG”, for which the binding signal is 3600 fluorescence intensity (a.u.).

For the sequence “CCAGGTCACATTCACATCTCTCTTTACCAAAGCTAAGCCACGGAGTCACCTAGTGCAG”, the binding signal is 48100 fluorescence intensity (a.u.).

“GCACCGTTGCTACGTGAGACCGCGCGGTCTCGCACTTTTACGGAGTCACCTAGTGCAG”: the binding signal was 3160 fluorescence intensity (a.u.).

Consider “ATAGATTGTGGGGCCCAGATGTTGGTGGTAGACGTGGTTTCGGAGTCACCTAGTGCAG”, for which the binding signal was 3400 fluorescence intensity (a.u.).

In the case of “GCCGCGGCGGACGCGCACGATGTTCCCGCGCATGATGTGGCGGAGTCACCTAGTGCAG”, the binding signal is 6670 fluorescence intensity (a.u.).

On to “CTATTTTAATCCCTCGAGAGAATATCCCCTCGTTCTTTGTCGGAGTCACCTAGTGCAG”, for which the binding signal is 3900 fluorescence intensity (a.u.).

For “AAAGATTCCTAATTTAGATAACGTGTTTACACCACGACGGCGGAGTCACCTAGTGCAG”, the binding signal was 3490 fluorescence intensity (a.u.).

For the sequence “CGATCCCTAACATTGAGGAACGAGTCTCACGCATTCTCTCCGGAGTCACCTAGTGCAG”, the binding signal was 3750 fluorescence intensity (a.u.).

Consider “TATAGTCCACTAAGTTCAACATGCTACCACGCCACATCATCGGAGTCACCTAGTGCAG”, for which the binding signal is 6500 fluorescence intensity (a.u.).

On to “GCTCCTTCTCGAACCCGCCCAGCACTGGCCGCGGTGGCACCGGAGTCACCTAGTGCAG”, for which the binding signal was 4220 fluorescence intensity (a.u.).

As to “GCCAAAGTAGAATGTCTCTTTCGAATCACATTGTACAGAGCGGAGTCACCTAGTGCAG”, the binding signal was 5190 fluorescence intensity (a.u.).

As to “AGTTGTGATCCCGATCTGTAATAGTTAGCTGTCATCACGTCGGAGTCACCTAGTGCAG”, the binding signal is 3730 fluorescence intensity (a.u.).

Consider “CGGGTGCGGCGCTGCAGCTGCTAACCTTCCCACGCCACGCCGGAGTCACCTAGTGCAG”, for which the binding signal was 3460 fluorescence intensity (a.u.).

Regarding “CGTGCAAGTCGATTTCATCACTTGATCACGCCGATGCAGGCGGAGTCACCTAGTGCAG”, the binding signal is 30400 fluorescence intensity (a.u.).

As for “TTTACCAACCAGAAGGTCTTGAGCTCGATTCCTTGCGCTTCGGAGTCACCTAGTGCAG”, the binding signal is 3670 fluorescence intensity (a.u.).

As to “ATGAATAATAAACTAAAGGCTCCTAGATGGCTGGAGGTTGCGGAGTCACCTAGTGCAG”, the binding signal is 3250 fluorescence intensity (a.u.).

With “GCCTCGCACAGTCGCGTTCCACGAATGCTCACGCGCGCGCCGGAGTCACCTAGTGCAG”, the binding signal was 3530 fluorescence intensity (a.u.).

As for “AATCCATGCTGACACGTAGATGTGTCATGCCACATAGACACGGAGTCACCTAGTGCAG”, the binding signal was 10200 fluorescence intensity (a.u.).

Take “AACTGCCACGTAAGTGCCACGTCAAAGCCACGTACAACGACGGAGTCACCTAGTGCAG”: the binding signal was 24200 fluorescence intensity (a.u.).

Turning to “GGGAATCGGGAGAGCGAGATGTGCCGTGTGCGTGCGTGTCCGGAGTCACCTAGTGCAG”, the binding signal was 4590 fluorescence intensity (a.u.).

In the case of “GGTCTCACCGTGGCGCCTCCCGTCCTGCTCGACGTGTGTCCGGAGTCACCTAGTGCAG”, the binding signal is 3630 fluorescence intensity (a.u.).

For the sequence “TACAACTATCGGGTGCACCGTCCCGTCGTCCACGTAGAAGCGGAGTCACCTAGTGCAG”, the binding signal is 3480 fluorescence intensity (a.u.).

As for “GTTATCTGATTCACGTTTACGAACGTAACTGTAAAAGAGACGGAGTCACCTAGTGCAG”, the binding signal is 3460 fluorescence intensity (a.u.).

As to “TCGGCAACCTGTAGAAGCCCCTTCTCTGACGCGGCTCTTGCGGAGTCACCTAGTGCAG”, the binding signal is 5270 fluorescence intensity (a.u.).
